Laboratory results reported in paper PMC5177617.
No constants are given. Whether binding was seen depends on the method and setting.

Molecular target: bovine serum albumin (negative control), P02769
Test: condition: 50 µg of DC-SIGN tetramer on 15 µg of blotted protein; far-Western, overlay or dot blot; 15 µg of ghA, ghB, ghC, MBP or BSA run on 12% SDS-PAGE and blotted; probed with 50 µg of DC-SIGN tetramer overnight at room temperature; detected with anti-DC-SIGN polyclonal antibody and Protein A-HRP; both purified
Conditions: remark: other sources report otherwise

binding: no binding
B1: soluble DC-SIGN tetramer (entire extracellular domain including the α-helical neck region), Q9NNX6 59-404 (domain or fragment)
chain: QVSKVPSSISQEQSRQDAIYQNLTQLKAAVGELSEKSKLQEIYQELTQLKAAVGELPEKSKLQEIYQELTRLKAAVGELPEKSKLQEIYQELTWLKAAVGELPEKSKMQEIYQELTRLKAAVGELPEKSKQQEIYQELTRLKAAVGELPEKSKQQEIYQELTRLKAAVGELPEKSKQQEIYQELTQLKAAVERLCHPCPWEWTFFQGNCYFMSNSQRNWHDSITACKEVGAQLVVIKSAEEQNFLQLQSSRSNRFTWMGLSDLNQEGTWQWVDGSPLLPSFKQYWNRGEPNNVGEEDCAEFSGNGWNDDKCNLAKFWICKKSAASCSRDEEQFLSPAPATPNPPPA
